The target in the experiment is human PD-L1 as crystallised with mouse PD-1 A132L (human) (UniProt Q9NZQ7). As to the kind of experiment: crystal structure; data not shown; complexes of the mouse analog of A132L PD-1 with human PD-L1 (PDB 3SBW) and mouse PD-L2 (PDB 3RNK, 3BP6); both purified.

The chains behind the UniProt entries cited, without tags or fusion partners. Where a name states a change or a piece, a line headed by the entry shows the natural chain unless it says otherwise. A line that says so, or that is headed by a name, gives the form on record, which may keep a tag or linker. Residues count along the entry.
UniProt Q9NZQ7, residues 19-239: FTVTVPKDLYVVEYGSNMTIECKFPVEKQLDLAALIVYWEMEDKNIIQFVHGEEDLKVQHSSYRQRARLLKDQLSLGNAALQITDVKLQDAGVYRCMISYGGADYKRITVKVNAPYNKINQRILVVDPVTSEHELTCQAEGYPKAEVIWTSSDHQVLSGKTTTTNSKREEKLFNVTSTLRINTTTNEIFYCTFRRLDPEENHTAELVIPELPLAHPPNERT
mouse PD-1 A132L mutant (soluble, monomeric) (Q02242, form named): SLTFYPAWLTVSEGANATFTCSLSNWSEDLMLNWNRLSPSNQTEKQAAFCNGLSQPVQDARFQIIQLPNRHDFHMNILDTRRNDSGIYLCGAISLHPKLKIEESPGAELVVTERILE

These are yes or no findings as the source states them, for the method shown. Some results given as binding are weak or reduced against the parent protein; the word gives no strength.

Turning to “mouse PD-1 A132L mutant (soluble, monomeric) (from UniProt Q02242 34-150) (domain or fragment)”, the binding entry is recorded as “binds”.

(Values after publication PMC5360572.)
